The supplement of paper PMC12823440, “Inhibitors supercharge kinase turnover through native proteolytic circuits” (Nature, 2025)
Where a name gives a salt, the structure may show the parent alone. The list shows a part of the results. The calls rarely recur for the same compound in another form.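 Kinases, fused to nanoluciferase, were expressed in K562 cells; luminescence was measured every 4 h from 2 to 18 h as percent of control (DMSO = 100%, positive control = 0%). A time point is decreased if signal falls significantly (2 sigma). Hits were called by the authors by a rule that is not shown; the count of time points alone does not decide it.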

By UniProt entry, the sequences of proteins in these tests, tags left out. Where a name states a change or a piece, a line headed by the entry shows the natural chain unless it says otherwise.
UniProt P07949, whole entry, looked up: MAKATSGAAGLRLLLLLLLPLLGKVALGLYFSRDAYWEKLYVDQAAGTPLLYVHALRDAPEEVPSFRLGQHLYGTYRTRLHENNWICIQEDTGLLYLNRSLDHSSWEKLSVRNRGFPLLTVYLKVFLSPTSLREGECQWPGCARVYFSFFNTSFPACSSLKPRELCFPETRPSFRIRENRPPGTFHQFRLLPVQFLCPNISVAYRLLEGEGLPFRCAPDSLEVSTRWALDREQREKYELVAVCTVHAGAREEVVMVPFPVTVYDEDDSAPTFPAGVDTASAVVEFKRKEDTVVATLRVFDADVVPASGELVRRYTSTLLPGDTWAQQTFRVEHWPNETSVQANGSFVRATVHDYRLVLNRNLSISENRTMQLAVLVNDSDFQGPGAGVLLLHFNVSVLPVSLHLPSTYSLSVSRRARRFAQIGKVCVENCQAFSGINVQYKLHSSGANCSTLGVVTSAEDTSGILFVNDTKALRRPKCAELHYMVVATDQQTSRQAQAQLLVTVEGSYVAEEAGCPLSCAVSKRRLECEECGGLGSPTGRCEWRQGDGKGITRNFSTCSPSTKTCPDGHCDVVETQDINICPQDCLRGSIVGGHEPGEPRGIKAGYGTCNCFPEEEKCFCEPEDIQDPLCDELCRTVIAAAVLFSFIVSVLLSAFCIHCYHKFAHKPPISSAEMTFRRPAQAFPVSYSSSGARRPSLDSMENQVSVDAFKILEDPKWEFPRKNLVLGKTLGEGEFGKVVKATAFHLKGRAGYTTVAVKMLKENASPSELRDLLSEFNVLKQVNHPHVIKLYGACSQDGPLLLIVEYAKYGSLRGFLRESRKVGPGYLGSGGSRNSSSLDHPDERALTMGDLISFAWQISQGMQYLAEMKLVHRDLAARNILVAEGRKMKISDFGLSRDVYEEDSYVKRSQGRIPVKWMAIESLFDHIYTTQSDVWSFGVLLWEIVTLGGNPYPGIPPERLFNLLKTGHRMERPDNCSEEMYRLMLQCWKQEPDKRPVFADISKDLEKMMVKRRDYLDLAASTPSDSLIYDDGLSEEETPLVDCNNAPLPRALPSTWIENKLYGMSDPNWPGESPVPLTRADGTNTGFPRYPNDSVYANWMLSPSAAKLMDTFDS
UniProt P07949, whole entry M918T, looked up: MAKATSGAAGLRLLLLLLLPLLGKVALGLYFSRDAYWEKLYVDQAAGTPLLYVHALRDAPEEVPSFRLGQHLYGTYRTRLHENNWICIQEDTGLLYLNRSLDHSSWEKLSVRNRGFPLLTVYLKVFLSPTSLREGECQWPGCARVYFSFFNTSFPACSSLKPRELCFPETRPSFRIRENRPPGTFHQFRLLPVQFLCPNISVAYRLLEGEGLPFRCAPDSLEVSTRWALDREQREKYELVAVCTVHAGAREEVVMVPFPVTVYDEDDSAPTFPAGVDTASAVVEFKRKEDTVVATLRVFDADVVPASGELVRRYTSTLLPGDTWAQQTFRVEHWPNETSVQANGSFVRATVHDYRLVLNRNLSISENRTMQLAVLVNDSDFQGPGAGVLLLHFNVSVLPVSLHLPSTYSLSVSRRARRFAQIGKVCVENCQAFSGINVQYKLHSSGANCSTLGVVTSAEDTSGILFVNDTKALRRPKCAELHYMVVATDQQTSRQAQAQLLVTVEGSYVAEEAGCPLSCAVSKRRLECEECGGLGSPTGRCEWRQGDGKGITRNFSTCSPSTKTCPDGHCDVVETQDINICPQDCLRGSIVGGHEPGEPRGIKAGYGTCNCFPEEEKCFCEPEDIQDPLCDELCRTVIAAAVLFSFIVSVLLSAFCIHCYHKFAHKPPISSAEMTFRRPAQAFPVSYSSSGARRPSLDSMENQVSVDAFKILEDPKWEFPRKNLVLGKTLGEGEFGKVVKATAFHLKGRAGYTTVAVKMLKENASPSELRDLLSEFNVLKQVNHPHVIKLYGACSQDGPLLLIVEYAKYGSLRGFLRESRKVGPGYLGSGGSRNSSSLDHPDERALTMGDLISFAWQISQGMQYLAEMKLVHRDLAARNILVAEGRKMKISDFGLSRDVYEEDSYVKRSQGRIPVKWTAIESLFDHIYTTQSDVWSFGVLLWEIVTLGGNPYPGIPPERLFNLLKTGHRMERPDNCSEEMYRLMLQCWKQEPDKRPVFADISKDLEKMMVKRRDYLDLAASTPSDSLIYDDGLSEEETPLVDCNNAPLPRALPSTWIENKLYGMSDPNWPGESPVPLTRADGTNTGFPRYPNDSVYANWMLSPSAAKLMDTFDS
UniProt Q9BRS2: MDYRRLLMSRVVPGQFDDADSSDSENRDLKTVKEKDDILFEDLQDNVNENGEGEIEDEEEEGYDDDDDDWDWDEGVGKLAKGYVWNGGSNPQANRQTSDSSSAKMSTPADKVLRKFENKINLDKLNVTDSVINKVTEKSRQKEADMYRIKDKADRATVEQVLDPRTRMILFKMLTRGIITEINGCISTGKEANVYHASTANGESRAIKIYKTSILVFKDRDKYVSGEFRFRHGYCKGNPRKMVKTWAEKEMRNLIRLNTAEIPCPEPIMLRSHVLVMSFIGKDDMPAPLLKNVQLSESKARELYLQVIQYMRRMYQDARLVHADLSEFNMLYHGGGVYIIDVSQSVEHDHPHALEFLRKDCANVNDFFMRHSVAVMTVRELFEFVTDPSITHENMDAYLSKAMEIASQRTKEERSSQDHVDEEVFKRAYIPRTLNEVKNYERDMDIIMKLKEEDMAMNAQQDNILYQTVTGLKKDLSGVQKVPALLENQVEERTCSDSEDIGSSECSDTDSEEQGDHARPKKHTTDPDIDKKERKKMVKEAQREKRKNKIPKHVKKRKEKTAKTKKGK
UniProt Q13546: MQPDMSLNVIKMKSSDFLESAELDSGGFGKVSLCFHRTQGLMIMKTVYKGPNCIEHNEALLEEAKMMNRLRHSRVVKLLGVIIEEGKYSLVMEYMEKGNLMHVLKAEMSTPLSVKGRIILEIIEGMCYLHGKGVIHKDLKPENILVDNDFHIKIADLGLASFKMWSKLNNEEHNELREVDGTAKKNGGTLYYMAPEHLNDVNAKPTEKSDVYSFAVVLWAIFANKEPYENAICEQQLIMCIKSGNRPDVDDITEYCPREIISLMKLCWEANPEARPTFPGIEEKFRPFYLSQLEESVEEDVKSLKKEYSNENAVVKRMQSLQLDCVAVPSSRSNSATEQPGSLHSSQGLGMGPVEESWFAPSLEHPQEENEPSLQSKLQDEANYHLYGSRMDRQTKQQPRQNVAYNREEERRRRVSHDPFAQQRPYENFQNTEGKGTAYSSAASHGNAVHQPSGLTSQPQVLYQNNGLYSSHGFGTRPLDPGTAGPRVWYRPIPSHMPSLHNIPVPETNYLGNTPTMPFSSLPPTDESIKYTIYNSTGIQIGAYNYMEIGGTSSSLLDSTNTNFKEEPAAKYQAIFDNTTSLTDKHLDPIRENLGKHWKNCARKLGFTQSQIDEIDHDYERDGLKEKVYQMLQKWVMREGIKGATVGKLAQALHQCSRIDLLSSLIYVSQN
UniProt Q01974, whole entry: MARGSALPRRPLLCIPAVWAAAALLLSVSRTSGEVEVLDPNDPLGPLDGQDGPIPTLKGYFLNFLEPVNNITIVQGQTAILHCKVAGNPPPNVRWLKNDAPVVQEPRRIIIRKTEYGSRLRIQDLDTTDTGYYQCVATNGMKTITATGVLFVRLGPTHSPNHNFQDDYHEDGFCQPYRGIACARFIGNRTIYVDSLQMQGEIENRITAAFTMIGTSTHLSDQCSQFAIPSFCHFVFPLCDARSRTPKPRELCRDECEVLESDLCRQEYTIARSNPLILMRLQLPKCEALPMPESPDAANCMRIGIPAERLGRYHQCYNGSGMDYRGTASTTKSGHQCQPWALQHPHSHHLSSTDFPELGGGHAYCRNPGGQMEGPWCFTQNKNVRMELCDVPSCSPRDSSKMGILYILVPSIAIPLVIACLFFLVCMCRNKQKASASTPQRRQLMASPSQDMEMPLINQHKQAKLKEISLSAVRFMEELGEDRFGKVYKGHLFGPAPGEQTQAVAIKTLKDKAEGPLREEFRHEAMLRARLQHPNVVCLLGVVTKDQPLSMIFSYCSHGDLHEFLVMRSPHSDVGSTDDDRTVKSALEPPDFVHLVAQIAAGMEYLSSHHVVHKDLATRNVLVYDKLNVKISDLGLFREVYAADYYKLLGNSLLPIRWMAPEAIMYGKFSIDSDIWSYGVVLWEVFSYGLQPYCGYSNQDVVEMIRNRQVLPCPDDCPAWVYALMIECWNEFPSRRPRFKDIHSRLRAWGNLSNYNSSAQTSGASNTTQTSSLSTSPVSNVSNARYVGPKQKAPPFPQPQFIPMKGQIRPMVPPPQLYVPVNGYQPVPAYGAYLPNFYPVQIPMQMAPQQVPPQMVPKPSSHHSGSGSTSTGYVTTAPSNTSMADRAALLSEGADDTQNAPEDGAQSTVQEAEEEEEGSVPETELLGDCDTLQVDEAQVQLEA
UniProt Q15418, whole entry: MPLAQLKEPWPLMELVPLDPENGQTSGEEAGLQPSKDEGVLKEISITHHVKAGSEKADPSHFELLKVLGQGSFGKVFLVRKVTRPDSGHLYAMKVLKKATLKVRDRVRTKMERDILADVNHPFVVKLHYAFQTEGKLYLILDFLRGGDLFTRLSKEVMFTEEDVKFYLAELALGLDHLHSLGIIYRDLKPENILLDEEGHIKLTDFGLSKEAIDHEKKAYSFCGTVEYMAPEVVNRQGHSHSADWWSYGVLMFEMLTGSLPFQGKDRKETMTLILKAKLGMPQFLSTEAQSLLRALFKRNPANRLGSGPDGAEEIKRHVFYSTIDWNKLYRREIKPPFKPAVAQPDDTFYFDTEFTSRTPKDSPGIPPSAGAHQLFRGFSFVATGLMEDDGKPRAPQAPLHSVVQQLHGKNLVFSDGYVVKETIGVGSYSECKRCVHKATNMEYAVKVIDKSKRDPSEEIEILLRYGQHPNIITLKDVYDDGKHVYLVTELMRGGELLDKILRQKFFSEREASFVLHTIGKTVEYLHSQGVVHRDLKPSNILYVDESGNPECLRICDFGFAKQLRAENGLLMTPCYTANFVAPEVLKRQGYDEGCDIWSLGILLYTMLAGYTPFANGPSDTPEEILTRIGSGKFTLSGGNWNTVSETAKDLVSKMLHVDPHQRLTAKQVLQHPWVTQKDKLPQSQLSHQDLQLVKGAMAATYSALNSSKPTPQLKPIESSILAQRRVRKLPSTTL
UniProt Q9NYA1, whole entry: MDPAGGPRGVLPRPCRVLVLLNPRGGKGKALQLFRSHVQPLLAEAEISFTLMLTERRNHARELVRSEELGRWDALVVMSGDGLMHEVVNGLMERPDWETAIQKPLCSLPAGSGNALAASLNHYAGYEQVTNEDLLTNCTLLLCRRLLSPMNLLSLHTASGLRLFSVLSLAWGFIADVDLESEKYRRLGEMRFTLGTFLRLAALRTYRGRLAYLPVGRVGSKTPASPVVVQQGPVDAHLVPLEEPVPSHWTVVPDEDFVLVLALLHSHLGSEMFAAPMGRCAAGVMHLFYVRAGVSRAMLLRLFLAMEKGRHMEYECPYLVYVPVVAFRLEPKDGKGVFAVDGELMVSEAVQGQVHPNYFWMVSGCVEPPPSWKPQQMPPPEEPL
UniProt Q9Y6E0: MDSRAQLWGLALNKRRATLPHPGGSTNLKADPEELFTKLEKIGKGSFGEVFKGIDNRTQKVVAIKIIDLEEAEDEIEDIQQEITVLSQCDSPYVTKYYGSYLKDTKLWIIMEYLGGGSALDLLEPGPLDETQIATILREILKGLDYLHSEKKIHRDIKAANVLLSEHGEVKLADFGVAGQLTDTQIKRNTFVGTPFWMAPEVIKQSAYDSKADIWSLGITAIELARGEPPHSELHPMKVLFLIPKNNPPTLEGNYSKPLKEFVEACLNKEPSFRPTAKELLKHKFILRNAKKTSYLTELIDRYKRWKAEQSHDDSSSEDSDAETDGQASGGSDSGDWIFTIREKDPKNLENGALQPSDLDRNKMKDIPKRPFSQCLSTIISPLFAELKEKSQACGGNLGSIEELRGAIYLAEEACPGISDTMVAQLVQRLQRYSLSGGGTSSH

What was measured:
Test in all cases: kinase-Nluc reporter destabilization hit call (1 = scored as downregulated) (binary); higher = compound decreases kinase abundance
Details in all cases: K562; 2-18 h
RET = RET (UniProt P07949)
[1] = biological target: RET_M918T (clone: RET_mut) (UniProt P07949)
RIOK1 = RIOK1 (UniProt Q9BRS2)
RIPK1 = RIPK1 (UniProt Q13546)
RIPK2 = RIPK2 (UniProt O43353)
ROR2 = ROR2 (UniProt Q01974)
RPS6KA1 = RPS6KA1 (UniProt Q15418)
SPHK1 = SPHK1 (UniProt Q9NYA1)
SRC = SRC (UniProt P12931)
STK24 = STK24 (UniProt Q9Y6E0)

Compound | kinase-Nluc reporter destabilization hit call (RET) | kinase-Nluc reporter destabilization hit call [1] | kinase-Nluc reporter destabilization hit call (RIOK1) | kinase-Nluc reporter destabilization hit call (RIPK1) | kinase-Nluc reporter destabilization hit call (RIPK2) | kinase-Nluc reporter destabilization hit call (ROR2) | kinase-Nluc reporter destabilization hit call (RPS6KA1) | kinase-Nluc reporter destabilization hit call (SPHK1) | kinase-Nluc reporter destabilization hit call (SRC) | kinase-Nluc reporter destabilization hit call (STK24)
CCc1ccc(C(=O)COc2ccc(CC3SC(=O)NC3=O)cc2)nc1 (stereo not given) (10 µM) | inactive: 0 | inactive: 0 | inactive: 0 | inactive: 0 | inactive: 0 | inactive: 0 | inactive: 0 | inactive: 0 | inactive: 0 | inactive: 0
CCOc1c([C@H](C)n2nc(C)c3c(N)ncnc32)cc(Cl)c(F)c1[C@@H]1CNC(=O)C1 [Parsaclisib (hydrochloride)] (10 µM) | inactive: 0 | inactive: 0 | inactive: 0 | inactive: 0 | inactive: 0 | inactive: 0 | inactive: 0 | inactive: 0 | inactive: 0 | inactive: 0
COc1cc(N2CCC(N3CCN(C)CC3)CC2)ccc1Nc1nc2c(c(Nc3ccccc3S(=O)(=O)NC(C)C)n1)CCN2 [Conteltinib] (10 µM) | inactive: 0 | inactive: 0 | inactive: 0 | inactive: 0 | inactive: 0 | inactive: 0 | inactive: 0 | inactive: 0 | inactive: 0 | inactive: 0
[O-][n+]1cccc(-c2nc3c(Cl)cccc3cc2[C@@H](Nc2ncnc3cccnc23)C(F)(F)F)c1 [Seletalisib] (10 µM) | inactive: 0 | inactive: 0 | inactive: 0 | inactive: 0 | inactive: 0 | inactive: 0 | inactive: 0 | inactive: 0 | inactive: 0 | inactive: 0
Cc1cc(Nc2nc(N[C@@H](C)c3ncc(F)cn3)ncc2Cl)[nH]n1 (10 µM) | inactive: 0 | inactive: 0 | inactive: 0 | inactive: 0 | inactive: 0 | inactive: 0 | inactive: 0 | inactive: 0 | inactive: 0 | inactive: 0
O=C(O)c1ccc(-c2c[nH]c3ncc(-c4ccccc4)cc23)cc1C1CCCC1 (2.5 µM) | inactive: 0 | inactive: 0 | inactive: 0 | inactive: 0 | inactive: 0 | inactive: 0 | inactive: 0 | inactive: 0 | inactive: 0 | inactive: 0
CN(C)Cc1cccc(N=C(c2ccccc2)c2c(O)[nH]c3cc(C(=O)N(C)C)ccc23)c1 (10 µM) | inactive: 0 | inactive: 0 | inactive: 0 | inactive: 0 | inactive: 0 | inactive: 0 | inactive: 0 | inactive: 0 | inactive: 0 | inactive: 0
Cc1cnc(Nc2ccc(N3CCN(C)CC3)cc2)nc1Nc1cccc(S(=O)(=O)NC(C)(C)C)c1 (2.5 µM) | inactive: 0 | inactive: 0 | inactive: 0 | inactive: 0 | inactive: 0 | inactive: 0 | inactive: 0 | inactive: 0 | inactive: 0 | inactive: 0
COc1cc(N2CCC(O)CC2)ccc1Nc1cc(Nc2ccccc2S(=O)(=O)C(C)C)c2cc[nH]c2n1 (10 µM) | inactive: 0 | inactive: 0 | inactive: 0 | inactive: 0 | inactive: 0 | inactive: 0 | inactive: 0 | inactive: 0 | inactive: 0 | inactive: 0
O=Nc1c(-c2c(O)[nH]c3ccccc23)[nH]c2ccccc12 [Indirubin-3'-monoxime] (2.5 µM) | inactive: 0 | inactive: 0 | inactive: 0 | inactive: 0 | inactive: 0 | inactive: 0 | inactive: 0 | inactive: 0 | inactive: 0 | inactive: 0
O=C1NCCCc2c1oc1ccc(O)cc21 (10 µM) | inactive: 0 | inactive: 0 | inactive: 0 | inactive: 0 | inactive: 0 | inactive: 0 | inactive: 0 | inactive: 0 | inactive: 0 | inactive: 0
CSc1ccc(CN2CCCC(Nc3ccc4[nH]ncc4c3)C2)cc1 (stereo not given) [Rho-Kinase-IN-1] (10 µM) | inactive: 0 | inactive: 0 | inactive: 0 | inactive: 0 | inactive: 0 | inactive: 0 | inactive: 0 | inactive: 0 | inactive: 0 | inactive: 0
OCCN(CCO)c1ccc(C(c2ccc(Cl)cc2)c2ccc(N(CCO)CCO)cc2)cc1 (10 µM) | inactive: 0 | inactive: 0 | inactive: 0 | inactive: 0 | inactive: 0 | inactive: 0 | inactive: 0 | inactive: 0 | inactive: 0 | inactive: 0
O=C(c1ccc(Nc2nccc(-c3cc4ccccc4s3)n2)cc1)N1CCC(N2CCCC2)CC1 (2.5 µM) | inactive: 0 | inactive: 0 | inactive: 0 | inactive: 0 | inactive: 0 | inactive: 0 | inactive: 0 | inactive: 0 | inactive: 0 | inactive: 0
Cc1ccc(-c2ccc3c(ccc4sc5c(c43)NC[C@@H](C)NC5=O)n2)cn1 (10 µM) | inactive: 0 | inactive: 0 | inactive: 0 | inactive: 0 | inactive: 0 | inactive: 0 | inactive: 0 | inactive: 0 | inactive: 0 | inactive: 0
O=C(Nc1cccc(-c2nncn2C2CC2)c1)c1cc(-n2cnc(C3CC3)c2)ccn1 (10 µM) | inactive: 0 | inactive: 0 | inactive: 0 | inactive: 0 | inactive: 0 | inactive: 0 | inactive: 0 | inactive: 0 | inactive: 0 | inactive: 0
CC1(N)CCN(c2cnc3c(-c4cccc(Cl)c4Cl)[nH]nc3n2)CC1 (2.5 µM) | inactive: 0 | inactive: 0 | inactive: 0 | inactive: 0 | inactive: 0 | inactive: 0 | inactive: 0 | inactive: 0 | inactive: 0 | inactive: 0
COc1cc(C(=O)N2CCC(N3CCN(C)CC3)CC2)ccc1Nc1ncc2c(n1)N(C)c1ccccc1C(=O)N2C (10 µM) | inactive: 0 | inactive: 0 | inactive: 0 | inactive: 0 | inactive: 0 | inactive: 0 | inactive: 0 | inactive: 0 | inactive: 0 | inactive: 0
COc1ncc(Nc2ncc([C@@H](C)N3CCN(S(C)(=O)=O)CC3)cc2-c2nc(C)nc(N)n2)cc1F (10 µM) | inactive: 0 | inactive: 0 | inactive: 0 | inactive: 0 | inactive: 0 | inactive: 0 | inactive: 0 | inactive: 0 | inactive: 0 | inactive: 0
C=CC(=O)N1CCC[C@@H](n2nc(C(=O)Nc3ccc(CC(=O)N(C)C)c(C)c3C)c3c(N)ncnc32)C1 (10 µM) | inactive: 0 | inactive: 0 | inactive: 0 | inactive: 0 | inactive: 0 | inactive: 0 | inactive: 0 | inactive: 0 | inactive: 0 | inactive: 0
Cc1cc(Nc2cc(CN3CCOCC3)c3nc(C)c(Cc4ccc(Cl)cc4F)n3n2)n[nH]1 [Gandotinib] (2.5 µM) | inactive: 0 | inactive: 0 | inactive: 0 | inactive: 0 | inactive: 0 | inactive: 0 | inactive: 0 | inactive: 0 | inactive: 0 | inactive: 0
c1ccc(-c2nn3c(c2-c2ccnc4cc(OCCN5CCOCC5)ccc24)CCC3)nc1 (10 µM) | inactive: 0 | inactive: 0 | inactive: 0 | inactive: 0 | active: 1 | inactive: 0 | inactive: 0 | inactive: 0 | inactive: 0 | inactive: 0
CC(C)c1ccc(CC(=O)N2CCN(c3ccc(C#N)nn3)CC2)cc1 (10 µM) | inactive: 0 | inactive: 0 | inactive: 0 | inactive: 0 | inactive: 0 | inactive: 0 | inactive: 0 | inactive: 0 | inactive: 0 | inactive: 0
COc1ccc(CNc2nc(N(CCO)CCO)nc3c2ncn3C(C)C)cc1 (2.5 µM) | inactive: 0 | inactive: 0 | inactive: 0 | inactive: 0 | inactive: 0 | inactive: 0 | inactive: 0 | inactive: 0 | inactive: 0 | inactive: 0
Cc1ccc(-c2ncn(-c3ccc(Nc4nccc(-c5cccc(N6CCOCC6)c5)n4)cc3)n2)cn1 (10 µM) | inactive: 0 | inactive: 0 | inactive: 0 | inactive: 0 | inactive: 0 | inactive: 0 | inactive: 0 | inactive: 0 | inactive: 0 | inactive: 0
N#C/C(=C\c1ccc2oc(=O)[nH]c2c1)C(=O)c1ccc(O)c(O)c1 (10 µM) | inactive: 0 | inactive: 0 | inactive: 0 | inactive: 0 | inactive: 0 | inactive: 0 | inactive: 0 | inactive: 0 | inactive: 0 | inactive: 0
O=C(O)CCc1ccc(NCc2cccc(Oc3ccccc3)c2)cc1 (10 µM) | inactive: 0 | inactive: 0 | inactive: 0 | inactive: 0 | inactive: 0 | inactive: 0 | inactive: 0 | inactive: 0 | inactive: 0 | inactive: 0
CNC(=O)c1ccc(-c2cnc3cnc(-c4ccccc4)cn23)cc1 (10 µM) | inactive: 0 | inactive: 0 | inactive: 0 | inactive: 0 | inactive: 0 | inactive: 0 | inactive: 0 | inactive: 0 | inactive: 0 | inactive: 0
C[C@H]1Cc2ccccc2N1C(=O)Cc1nc(N2CCOCC2)cc(=O)[nH]1 (2.5 µM) | inactive: 0 | inactive: 0 | inactive: 0 | inactive: 0 | inactive: 0 | inactive: 0 | inactive: 0 | inactive: 0 | inactive: 0 | inactive: 0
CC(C)C[C@H](NC(=O)[C@H](CCCCN)NC(=O)[C@H](CO)NC(=O)[C@@H](N)CC(C)C)C(N)=O [LSKL, Inhibitor of Thrombospondin (TSP-1) (TFA)] (10 µM) | inactive: 0 | inactive: 0 | inactive: 0 | inactive: 0 | inactive: 0 | inactive: 0 | inactive: 0 | inactive: 0 | inactive: 0 | inactive: 0

Shown as a markdown table: 2 of the compounds above.

| Compound | kinase-Nluc reporter destabilization hit call (RET) | kinase-Nluc reporter destabilization hit call [1] | kinase-Nluc reporter destabilization hit call (RIOK1) | kinase-Nluc reporter destabilization hit call (RIPK1) | kinase-Nluc reporter destabilization hit call (RIPK2) | kinase-Nluc reporter destabilization hit call (ROR2) | kinase-Nluc reporter destabilization hit call (RPS6KA1) | kinase-Nluc reporter destabilization hit call (SPHK1) | kinase-Nluc reporter destabilization hit call (SRC) | kinase-Nluc reporter destabilization hit call (STK24) |
| --- | --- | --- | --- | --- | --- | --- | --- | --- | --- | --- |
| Cc1cc(Nc2cc(CN3CCOCC3)c3nc(C)c(Cc4ccc(Cl)cc4F)n3n2)n[nH]1 [Gandotinib] (2.5 µM) | inactive: 0 | inactive: 0 | inactive: 0 | inactive: 0 | inactive: 0 | inactive: 0 | inactive: 0 | inactive: 0 | inactive: 0 | inactive: 0 |
| c1ccc(-c2nn3c(c2-c2ccnc4cc(OCCN5CCOCC5)ccc24)CCC3)nc1 (10 µM) | inactive: 0 | inactive: 0 | inactive: 0 | inactive: 0 | active: 1 | inactive: 0 | inactive: 0 | inactive: 0 | inactive: 0 | inactive: 0 |
